These are yes or no findings as the source states them, for the method shown. A result given as binding can be weak or reduced; the word gives no strength.

The chains behind the UniProt entries cited, without tags or fusion partners. Where a name states a change or a piece, a line headed by the entry shows the natural chain unless it says otherwise.
UniProt Q14654: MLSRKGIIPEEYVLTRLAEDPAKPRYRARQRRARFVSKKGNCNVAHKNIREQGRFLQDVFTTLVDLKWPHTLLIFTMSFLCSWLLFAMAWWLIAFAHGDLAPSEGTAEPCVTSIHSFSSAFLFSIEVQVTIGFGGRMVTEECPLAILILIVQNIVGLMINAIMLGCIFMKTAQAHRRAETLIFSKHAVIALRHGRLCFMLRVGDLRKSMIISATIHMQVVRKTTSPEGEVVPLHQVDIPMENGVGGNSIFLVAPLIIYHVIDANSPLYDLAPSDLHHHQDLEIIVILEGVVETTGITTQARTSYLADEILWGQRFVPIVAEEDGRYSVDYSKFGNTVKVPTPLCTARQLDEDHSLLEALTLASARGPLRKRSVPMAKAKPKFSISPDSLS

Binding data for 1 substance are collected here from publication doi:10.1101/2025.10.27.684718.

The experiment concerns the target maSUR1 (E203K) subunit of the cryo-EM KATP construct (Mesocricetus auratus). Briefly: cryo-EM structure.

In the case of “hsKir6.2 (Q52E) subunit of the cryo-EM KATP construct (from UniProt Q14654)”, the binding entry is reported as “binds”.
